Test results: the supplement of paper PMC5949888
Most values lie at the floor of the assay. Slopes are relative: functional sequences can read slightly below zero.

tested on: Saccharomyces cerevisiae PS128 hsf1 delta, HSF1(1-493) fusion; test: growth estimate (transactivation domain function in HSF1 fusion, heat-shock survival) (a.u. (slope of normalised read count over time)); higher = stronger growth at 37°C, i.e. more transactivation activity; conditions: library: random library

| Substance | growth estimate |
| --- | --- |
| TPTVLGDLRRGSNAVSLVRS | < -0.25 |
| AQSLSSRIIGSSKLVVIVGP | < -0.25 |
| YGFRQGTRTLVLATSRSVSE | < -0.25 |
| GTNETMPAK | < -0.25 |
| LAYTNADQRHLYCEQFREEG | < -0.25 |
| GLTTVQHK | < -0.25 |
| SRILV | < -0.25 |
| SFRPWGGLFFR | < -0.25 |
| ATTH | < -0.25 |
| RGFVKRLLTGAAGLATEQQP | < -0.25 |
| AERGVLR | < -0.25 |
| VEEECVITTLERFSYLH | < -0.25 |
| RSVLRGATYVII | < -0.25 |
| RKRVMRGARDG | < -0.25 |
| SRTGLVRVRKVRPTMRLG | < -0.25 |
| IGMGPGVKMRC | < -0.25 |
| KSK | < -0.25 |
| AREGKAF | < -0.25 |
| GPGRG | < -0.25 |
| FLNVGRWRGYYRAQARTPDN | < -0.25 |
| VRLSGRHRHLCH | < -0.25 |
| SDSLQ | < -0.25 |
| WKKEVSYSSPKRPWKED | -0.205 |
| SSVVQYGYVC | < -0.25 |
| ESLL | < -0.25 |

| Substance | growth estimate |
| --- | --- |
| PRLFDDMA | < -0.25 |
| HLLKSLVA | < -0.25 |
| DRC | < -0.25 |
| PPHYTKQVGD | < -0.25 |
| GVDSN | < -0.25 |
| RNGC | < -0.25 |
| GNLLKFISLIVAHR | < -0.25 |
| PDDL | < -0.25 |
| LIAYEVNCIRELKSVGGHGL | < -0.25 |
| GSLQYRSRAEKDSGQGVSQR | < -0.25 |
| VWLTQR | < -0.25 |
| PWANRFEIARTSVLNHPMRF | < -0.25 |
| YGEVTSVIYDSEVGNDVREH | < -0.25 |
| TICARARAYRKGSFEPIWRR | < -0.25 |
| APRGVVPGCVTRFTE | < -0.25 |
| SGFRDVLPQHEHDLPRTYAQ | < -0.25 |
| LFNSLLEYRA | < -0.25 |
| DGRLSLS | < -0.25 |
| WYIVVCISVLLHPNCFARHR | < -0.25 |
| ISESWSVKERVPRSMGLMVM | < -0.25 |
| YVWLRKVLYRSLHIFGRNRV | -0.192 |
| LPVQAPSVADVVEVRGSTLT | < -0.25 |
| RPYPGGRKTVICRLRGSRAT | < -0.25 |
| SPSVGEG | < -0.25 |
| HLLKP | < -0.25 |

Reprinted from the results shown (3 entries):

| Substance | growth estimate |
| --- | --- |
| IGMGPGVKMRC | < -0.25 |
| KSK | < -0.25 |
| AREGKAF | < -0.25 |

Later entries.

| Substance | growth estimate |
| --- | --- |
| GIVSDWLFSECLRR | -0.207 |
| GTVPSRGACLSWGGKIMFVS | < -0.25 |
| MLPSGGFRRMCDRFHGVGRN | < -0.25 |
| FVL | < -0.25 |
| LAEVSTRNSGAHGSSACLHE | < -0.25 |
| RGINLILARRLVHPLRATPT | < -0.25 |
| YSY | < -0.25 |
| GEKVAYNRSASQDGARLRGR | < -0.25 |
| SHTSNVPNWREEVTGDCEIA | < -0.25 |
| GGGIPEGLEDGPYRINYIGR | < -0.25 |
| VFFLSHALHVKPVQCSPHRT | < -0.25 |
| GCSPSRTVINSYRVREKRCR | -0.245 |
| RQGRRNRVARRGVNVGR | < -0.25 |
| GVS | < -0.25 |
| DWNF | < -0.25 |
| LVSPSQELGCQKNGQNRQYM | < -0.25 |
| LRRPQPTKVCSWMLVTSRFN | < -0.25 |
| QVMPIGFVGIHA | < -0.25 |
| KSLWPLTAGW | < -0.25 |
| GASSAM | < -0.25 |
| GCIVDYYIIIKSQTLHFVTF | < -0.25 |
| PSWE | < -0.25 |
| GILSLRSLVKRDA | < -0.25 |
| LGTSLARCLCVCMERKEKGP | < -0.25 |
| PPRRMYISSLG | -0.25 |

| Substance | growth estimate |
| --- | --- |
| CNCLSGMLIYSHSPSRLVRR | < -0.25 |
| KFRIQQVRGFPASNIASPP | < -0.25 |
| VTNTAACTRISCPTLFYGVN | < -0.25 |
| SSTNRRNRGAKPLTS | < -0.25 |
| AVANIINDS | < -0.25 |
| MVSYSVTLTATQDWCSYST | < -0.25 |
| GHAIYLRFVGLARGVNSV | < -0.25 |
| MKHPVHETSNN | < -0.25 |
| RLRHFQSINVG | -0.205 |
| PETSSRCARVGGKRNHLDCK | < -0.25 |
| VVLCLLASNHISFECMLAVV | < -0.25 |
| ACNSTPEGVNR | < -0.25 |
| RLKRSLDSMVLVPSKGPYTN | < -0.25 |
| RESVAPLVHRAYIDESGKVV | < -0.25 |
| RRRFTDVAVRSMIGGSST | < -0.25 |
| GFSLVWDSPLL | -0.079 |
| VSNTVSGRRIGPWEGLNLVC | < -0.25 |
| EWAPWRSILGPTSRRKTRGA | < -0.25 |
| VIHISPY | < -0.25 |
| SLSQPRVWARRHV | < -0.25 |
| GQRQVLPYRY | < -0.25 |
| VKVAGNVIGFCVLKCLCCKT | < -0.25 |
| AQYTDEGAWLLW | -0.0226 |
| STPSRFIVQRYATVLISWL | < -0.25 |

Copied from the list.
For growth estimate, ESLL is entered as < -0.25
For growth estimate, GPGRG is entered as < -0.25
For growth estimate, RKRVMRGARDG is entered as < -0.25
